Molecules are shown by their SMILES. The list shows a part of the results. Repeats in this data set agree poorly, so a single value says little.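 Human kidney-derived cells stably carry a construct in which eight TEAD-binding elements drive luciferase, measured by luminescence in a drug-repurposing library screen. A hit is any compound whose signal exceeds the plate mean by more than five robust Z scores.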

The assay concerns HEK293A TEAD-LUC reporter. Put plainly: TEAD-luciferase reporter activity (YAP activation), robust Z score vs plate; higher = stronger YAP/TEAD activation. The settings on record: 24 h. In general terms: Reporter assays use an easily measured gene product as a stand-in for the process of interest.

For the compound `CC[C@H](C)[C@H]1O[C@]2(CC[C@@H]1C)C[C@@H]1C[C@@H](C/C=C(\C)[C@@H](O[C@H]3C[C@H](OC)[C@@H](O[C@H]4C[C@H](OC)[C@@H](O)[C@H](C)O4)[C@H](C)O3)[C@@H](C)/C=C/C=C3\CO[C@@H]4[C@H](O)C(C)=C[C@@H](C(=O)O1)[C@]34O)O2` [ivermectin 1%], the TEAD-luciferase reporter activity (compound concentration: 2 uM) was inactive: 2.66.
Regarding `CC[C@H](C)[C@H]1O[C@]2(CC[C@@H]1C)C[C@@H]1C[C@@H](C/C=C(\C)[C@@H](O[C@H]3C[C@H](OC)[C@@H](O[C@H]4C[C@H](OC)[C@@H](O)[C@H](C)O4)[C@H](C)O3)[C@@H](C)/C=C/C=C3\CO[C@@H]4[C@H](O)C(C)=C[C@@H](C(=O)O1)[C@]34O)O2` [ivermectin 1%, Galderma], the TEAD-luciferase reporter activity is inactive: -0.416 (compound concentration: 200 nM) and inactive: 0.573 (compound concentration: 10 uM).
Turning to `CN(c1ccc(/C=C/C[C@H](NC(=O)c2c(F)cccc2F)C(=O)O)cc1)c1ncccn1`, the TEAD-luciferase reporter activity is, setting by setting: (compound concentration: 200 nM) inactive: 0.567; (compound concentration: 2 uM) inactive: -0.907; (compound concentration: 10 uM) inactive: 0.41.
For `O=S(=O)(O)c1ccccc1CO`, in that order: inactive: -1.21, inactive: -2.46 and inactive: 1.65.
For `N#CCC1(n2cc(-c3ncnc4[nH]ccc34)cn2)CN(C2CCN(C(=O)c3ccnc(C(F)(F)F)n3)CC2)C1`, in that order: inactive: -1.23, inactive: -0.935 and inactive: -1.32.
For `CNC(=O)c1c(-c2ccc(F)cc2)oc2cc(N(Cc3ccc(B(O)O)c(F)c3)S(C)(=O)=O)c(C3CC3)cc12`, in that order: inactive: -1.52, inactive: -1.72 and inactive: -1.59.
On to `CCNCC1CCN(c2c(F)cc3c(=O)c(C(=O)O)cn(CC)c3c2F)C1` (stereo not given), for which the TEAD-luciferase reporter activity runs as follows: (compound concentration: 200 nM) inactive: 0.734; (compound concentration: 2 uM) inactive: 1.69; (compound concentration: 10 uM) inactive: 1.27.
`O/N=C(\Nc1ccccc1)c1cccc(C(F)(F)F)c1`: the TEAD-luciferase reporter activity runs as follows: (compound concentration: 200 nM) inactive: 0.969; (compound concentration: 2 uM) inactive: -1.4; (compound concentration: 10 uM) inactive: -0.671.
As to `C[C@@H](O)[C@H](NC(=O)C1CSSC[C@H](NC(=O)[C@H](N)Cc2ccccc2)C(=O)N[C@@H](Cc2ccc(O)cc2)C(=O)NC(Cc2c[nH]c3ccccc23)C(=O)NC(CCCCN)C(=O)N1)C(N)=O` (stereo not given in full), the TEAD-luciferase reporter activity reads like this: (compound concentration: 200 nM) inactive: -0.257; (compound concentration: 10 uM) inactive: 1.88.
In the case of `O=C(Cc1cccs1)N[C@@H]1C(=O)N2C(C(=O)O)=C(CSc3nc[nH]n3)CS[C@H]12`, the TEAD-luciferase reporter activity is, setting by setting: (compound concentration: 200 nM) inactive: -0.111; (compound concentration: 2 uM) inactive: -0.735; (compound concentration: 10 uM) inactive: 0.296.
For `NC(=O)N1c2ccccc2COc2ccc(Cl)cc21`, in that order: inactive: 4.4, inactive: -1.92 and inactive: -0.804.
Take `CC(=O)O[C@@H]1CC[C@@]2(C)[C@@H](CC[C@]3(C)[C@@H]2C(=O)C=C2[C@@H]4[C@@H](C)[C@H](C)CC[C@]4(C)CC[C@]23C)[C@@]1(C)C(=O)O`: the TEAD-luciferase reporter activity (compound concentration: 2 uM) is inactive: -0.944.
With `CC(=O)O[C@@H]1CC[C@@]2(C)[C@@H](CC[C@]3(C)[C@@H]2C(=O)C=C2[C@@H]4[C@@H](C)[C@H](C)CC[C@]4(C)CC[C@]23C)[C@@]1(C)C(=O)O` [Acetyl-11-keto-?-Boswellic Acid, Boswellia serrata], the TEAD-luciferase reporter activity (compound concentration: 200 nM) was inactive: -0.984 and the TEAD-luciferase reporter activity (compound concentration: 10 uM) is inactive: 0.0318.
`Oc1ccc(C2COc3cc(O)ccc3C2c2ccc(O)cc2)cc1` (stereo not given): the TEAD-luciferase reporter activity reads like this: (compound concentration: 200 nM) inactive: -0.0698; (compound concentration: 2 uM) inactive: -0.0622; (compound concentration: 10 uM) inactive: 2.99.
For `O=C(O)COCCOCCN1CCC(=C(c2ccccc2)c2ccccc2)CC1` [Pibaxizine], in that order: inactive: -1.81, inactive: -0.781 and inactive: 0.264.
In the same order, the values of `NCCCC[C@H](NC(=O)[C@@H]1CCCN1C(=O)[C@@H]1CSSC[C@H](NC(=O)CNC(=O)CNC(=O)CN)C(=O)N[C@@H](Cc2ccc(O)cc2)C(=O)N[C@@H](Cc2ccccc2)C(=O)N[C@@H](CCC(N)=O)C(=O)N[C@@H](CC(N)=O)C(=O)N1)C(=O)NCC(N)=O` [Terlipressin] are inactive: -0.7, inactive: -0.163 and inactive: 0.199.
For the compound `CC(=O)Nc1cccc(-n2c(=O)n(C3CC3)c(=O)c3c(Nc4ccc(I)cc4F)n(C)c(=O)c(C)c32)c1` [Trametinib], the TEAD-luciferase reporter activity was inactive: -0.765 (compound concentration: 200 nM) and inactive: -1.9 (compound concentration: 10 uM).
Take `CC(=O)Nc1cccc(-n2c(=O)n(C3CC3)c(=O)c3c(Nc4ccc(I)cc4F)n(C)c(=O)c(C)c32)c1` [Trametinib dimethyl sulfoxide]: the TEAD-luciferase reporter activity (compound concentration: 2 uM) is inactive: -1.89.
`O=C(NCC1CCNCC1)c1cnc(Nc2cccc(Cl)c2)nc1C(F)(F)F`: the TEAD-luciferase reporter activity (compound concentration: 200 nM) is inactive: -1.15, the TEAD-luciferase reporter activity (compound concentration: 2 uM) was inactive: -0.402 and the TEAD-luciferase reporter activity (compound concentration: 10 uM) was inactive: -0.63.
In the case of `CC(C(=O)O)c1ccc2c(c1)[nH]c1ccc(Cl)cc12` (stereo not given) [carprofen], the TEAD-luciferase reporter activity (compound concentration: 200 nM) is inactive: 1.73, the TEAD-luciferase reporter activity (compound concentration: 2 uM) is inactive: -2.38 and the TEAD-luciferase reporter activity (compound concentration: 10 uM) was inactive: 2.69.
In the same order, the values of `O=c1ccc2c(OCCCCOc3ccccc3)c3ccoc3cc2o1` are inactive: 0.642, inactive: 1.67 and inactive: -0.997.
In the same order, the values of `C=CCNc1nc(NCC=C)nc(N2CCN(C(c3ccc(F)cc3)c3ccc(F)cc3)CC2)n1` [almitrine bismesilate] are inactive: -0.394, inactive: -1.51 and inactive: -0.902.
In the same order, the values of `CC(=O)OCC(=O)[C@@]12OC3(CCCC3)O[C@@H]1C[C@H]1[C@@H]3CCC4=CC(=O)C=C[C@]4(C)[C@@]3(F)[C@@H](O)C[C@@]12C` [amcinonide] are inactive: -0.112, inactive: 0.899 and inactive: 1.9.
Regarding `O=C(O)c1ccccc1-c1ccc(C(F)(F)F)cc1`, the TEAD-luciferase reporter activity is inactive: 1.36 (compound concentration: 200 nM), inactive: 0.659 (compound concentration: 2 uM) and inactive: -1.75 (compound concentration: 10 uM).
In the case of `CN1CCc2ccccc2Oc2ccccc2CC1`, the TEAD-luciferase reporter activity is inactive: 0.0232 (compound concentration: 200 nM), inactive: -0.307 (compound concentration: 2 uM) and inactive: -1.52 (compound concentration: 10 uM).

The values are drawn from the supplement of paper PMC10735217.
